According to article PMC8425198:
No constants are given. Whether binding was seen depends on the method and setting. In cells and extracts the contact can be indirect. A yes stands for co-enrichment or nearness to the bait. Other partners may have been found.

Protein sequences, listed by entry. Tags and fused reporters are not part of them. Residues count along the entry.
UniProt P54760, residues 16-987: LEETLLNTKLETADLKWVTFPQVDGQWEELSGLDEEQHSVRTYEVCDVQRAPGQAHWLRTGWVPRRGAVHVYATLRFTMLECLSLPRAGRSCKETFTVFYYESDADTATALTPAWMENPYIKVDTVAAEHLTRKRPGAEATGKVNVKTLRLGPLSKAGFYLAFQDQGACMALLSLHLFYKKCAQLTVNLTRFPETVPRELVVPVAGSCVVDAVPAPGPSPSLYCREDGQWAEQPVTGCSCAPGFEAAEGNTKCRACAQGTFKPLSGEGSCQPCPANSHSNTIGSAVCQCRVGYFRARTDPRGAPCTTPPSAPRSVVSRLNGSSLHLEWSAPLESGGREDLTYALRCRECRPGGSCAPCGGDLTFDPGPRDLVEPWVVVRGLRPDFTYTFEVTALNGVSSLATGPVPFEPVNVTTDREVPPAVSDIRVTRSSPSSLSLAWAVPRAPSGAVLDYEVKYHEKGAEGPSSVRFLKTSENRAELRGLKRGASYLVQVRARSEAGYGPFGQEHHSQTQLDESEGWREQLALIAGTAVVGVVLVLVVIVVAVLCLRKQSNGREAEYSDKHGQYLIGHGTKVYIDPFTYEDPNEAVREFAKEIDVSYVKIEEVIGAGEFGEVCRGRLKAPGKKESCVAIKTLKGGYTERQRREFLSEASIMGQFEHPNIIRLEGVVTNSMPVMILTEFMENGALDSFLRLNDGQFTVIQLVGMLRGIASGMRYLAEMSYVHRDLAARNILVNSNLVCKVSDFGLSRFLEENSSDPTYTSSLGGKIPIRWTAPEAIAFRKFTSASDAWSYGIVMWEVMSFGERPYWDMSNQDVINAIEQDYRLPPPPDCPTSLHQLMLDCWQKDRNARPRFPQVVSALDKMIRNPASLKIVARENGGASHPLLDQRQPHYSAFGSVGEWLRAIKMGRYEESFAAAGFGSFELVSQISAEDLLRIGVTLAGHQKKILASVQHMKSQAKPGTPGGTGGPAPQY
UniProt O43707: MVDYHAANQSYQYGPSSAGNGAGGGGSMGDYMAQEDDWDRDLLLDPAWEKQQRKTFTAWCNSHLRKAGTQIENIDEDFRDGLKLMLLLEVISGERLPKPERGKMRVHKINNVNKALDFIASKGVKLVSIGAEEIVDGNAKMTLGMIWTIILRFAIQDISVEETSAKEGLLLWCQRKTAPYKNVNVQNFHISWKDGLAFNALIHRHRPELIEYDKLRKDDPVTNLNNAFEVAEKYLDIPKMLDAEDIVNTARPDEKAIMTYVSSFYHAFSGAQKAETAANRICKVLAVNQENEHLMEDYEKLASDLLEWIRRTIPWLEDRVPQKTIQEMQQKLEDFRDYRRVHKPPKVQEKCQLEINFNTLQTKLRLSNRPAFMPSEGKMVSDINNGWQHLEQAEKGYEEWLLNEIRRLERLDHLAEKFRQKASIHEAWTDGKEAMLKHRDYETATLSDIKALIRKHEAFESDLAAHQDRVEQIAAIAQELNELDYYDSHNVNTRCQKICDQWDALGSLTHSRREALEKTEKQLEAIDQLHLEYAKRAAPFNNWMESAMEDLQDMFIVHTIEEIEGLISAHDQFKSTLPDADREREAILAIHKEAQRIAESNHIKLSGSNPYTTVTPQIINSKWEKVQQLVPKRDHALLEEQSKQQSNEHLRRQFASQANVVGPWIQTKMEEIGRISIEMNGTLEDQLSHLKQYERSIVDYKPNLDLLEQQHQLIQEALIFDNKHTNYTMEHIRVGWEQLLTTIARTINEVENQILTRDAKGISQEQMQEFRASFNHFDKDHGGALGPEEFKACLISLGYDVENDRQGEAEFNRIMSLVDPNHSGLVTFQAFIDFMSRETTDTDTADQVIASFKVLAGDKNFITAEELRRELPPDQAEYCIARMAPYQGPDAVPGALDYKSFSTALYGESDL
UniProt Q08462: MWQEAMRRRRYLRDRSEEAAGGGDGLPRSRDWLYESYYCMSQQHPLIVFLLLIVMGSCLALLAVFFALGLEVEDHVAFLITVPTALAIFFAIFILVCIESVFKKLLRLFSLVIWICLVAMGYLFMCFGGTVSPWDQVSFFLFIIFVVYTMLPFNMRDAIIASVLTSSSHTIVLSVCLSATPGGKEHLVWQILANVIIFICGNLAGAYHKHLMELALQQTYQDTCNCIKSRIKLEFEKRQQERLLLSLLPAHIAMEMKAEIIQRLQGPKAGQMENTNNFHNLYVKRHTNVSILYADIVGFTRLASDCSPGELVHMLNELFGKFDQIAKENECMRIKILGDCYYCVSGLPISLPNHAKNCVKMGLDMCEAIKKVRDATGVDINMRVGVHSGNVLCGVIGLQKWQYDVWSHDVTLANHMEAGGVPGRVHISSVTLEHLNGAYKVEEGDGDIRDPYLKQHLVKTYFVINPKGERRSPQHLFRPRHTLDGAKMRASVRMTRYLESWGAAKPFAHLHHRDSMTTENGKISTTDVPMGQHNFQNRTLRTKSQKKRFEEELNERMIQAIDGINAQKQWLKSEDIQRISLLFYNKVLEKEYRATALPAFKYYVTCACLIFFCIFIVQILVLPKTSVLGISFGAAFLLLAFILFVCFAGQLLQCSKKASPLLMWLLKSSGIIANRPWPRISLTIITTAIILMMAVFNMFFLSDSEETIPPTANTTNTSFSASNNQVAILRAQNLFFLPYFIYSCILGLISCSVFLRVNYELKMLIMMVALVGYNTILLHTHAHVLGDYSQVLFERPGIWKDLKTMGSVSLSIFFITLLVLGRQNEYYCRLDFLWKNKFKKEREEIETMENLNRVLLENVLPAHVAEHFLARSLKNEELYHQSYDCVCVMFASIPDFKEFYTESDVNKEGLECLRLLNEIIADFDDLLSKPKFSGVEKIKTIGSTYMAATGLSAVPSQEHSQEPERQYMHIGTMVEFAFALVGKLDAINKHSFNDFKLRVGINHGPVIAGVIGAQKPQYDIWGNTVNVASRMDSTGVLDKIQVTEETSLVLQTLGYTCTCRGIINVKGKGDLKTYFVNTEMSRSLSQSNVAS
UniProt P27824, residues 21-592: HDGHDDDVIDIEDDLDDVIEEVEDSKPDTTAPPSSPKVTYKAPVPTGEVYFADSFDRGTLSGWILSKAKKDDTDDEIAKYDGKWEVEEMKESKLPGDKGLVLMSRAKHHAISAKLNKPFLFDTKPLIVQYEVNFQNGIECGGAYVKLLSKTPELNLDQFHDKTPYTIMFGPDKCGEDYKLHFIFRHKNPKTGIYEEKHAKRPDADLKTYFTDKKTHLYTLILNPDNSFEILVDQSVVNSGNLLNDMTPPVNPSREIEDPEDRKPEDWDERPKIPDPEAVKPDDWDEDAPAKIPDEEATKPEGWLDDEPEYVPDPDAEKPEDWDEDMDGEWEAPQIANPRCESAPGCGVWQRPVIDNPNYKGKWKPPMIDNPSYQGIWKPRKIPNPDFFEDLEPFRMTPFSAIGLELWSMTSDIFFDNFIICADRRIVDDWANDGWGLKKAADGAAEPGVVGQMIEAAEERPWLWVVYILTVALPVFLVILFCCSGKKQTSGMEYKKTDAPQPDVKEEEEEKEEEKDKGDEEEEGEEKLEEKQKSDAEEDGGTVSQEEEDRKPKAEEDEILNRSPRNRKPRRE
UniProt Q9UJU6: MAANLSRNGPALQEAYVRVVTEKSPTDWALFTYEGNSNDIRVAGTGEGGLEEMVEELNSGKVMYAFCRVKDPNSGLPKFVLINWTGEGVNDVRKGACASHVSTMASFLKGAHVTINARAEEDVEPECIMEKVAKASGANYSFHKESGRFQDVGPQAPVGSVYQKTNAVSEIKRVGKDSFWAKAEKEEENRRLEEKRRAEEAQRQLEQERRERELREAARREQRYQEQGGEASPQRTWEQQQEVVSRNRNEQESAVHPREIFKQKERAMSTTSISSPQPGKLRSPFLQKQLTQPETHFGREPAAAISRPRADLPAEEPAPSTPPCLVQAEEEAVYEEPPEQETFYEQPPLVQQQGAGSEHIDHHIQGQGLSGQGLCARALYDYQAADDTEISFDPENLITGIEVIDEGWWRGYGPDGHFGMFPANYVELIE
UniProt P63241: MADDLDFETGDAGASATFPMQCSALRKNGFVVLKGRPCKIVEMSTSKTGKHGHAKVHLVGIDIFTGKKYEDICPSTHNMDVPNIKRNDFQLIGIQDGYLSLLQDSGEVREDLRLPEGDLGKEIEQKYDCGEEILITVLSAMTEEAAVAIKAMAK
UniProt P02538: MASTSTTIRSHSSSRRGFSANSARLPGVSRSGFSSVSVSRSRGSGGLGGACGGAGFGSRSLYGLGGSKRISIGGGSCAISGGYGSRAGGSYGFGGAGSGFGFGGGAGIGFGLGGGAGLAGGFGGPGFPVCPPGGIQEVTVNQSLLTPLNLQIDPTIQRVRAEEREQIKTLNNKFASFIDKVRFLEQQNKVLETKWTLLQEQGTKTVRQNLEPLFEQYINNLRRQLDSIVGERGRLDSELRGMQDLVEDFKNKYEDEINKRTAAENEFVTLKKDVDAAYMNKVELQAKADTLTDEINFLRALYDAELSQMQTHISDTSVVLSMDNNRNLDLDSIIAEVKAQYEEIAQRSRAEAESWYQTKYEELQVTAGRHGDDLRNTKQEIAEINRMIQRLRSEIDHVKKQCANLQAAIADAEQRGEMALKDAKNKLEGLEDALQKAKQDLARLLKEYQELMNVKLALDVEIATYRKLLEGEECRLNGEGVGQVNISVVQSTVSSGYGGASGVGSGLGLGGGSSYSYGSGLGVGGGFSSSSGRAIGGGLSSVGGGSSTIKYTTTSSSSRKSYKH
UniProt Q05BQ5: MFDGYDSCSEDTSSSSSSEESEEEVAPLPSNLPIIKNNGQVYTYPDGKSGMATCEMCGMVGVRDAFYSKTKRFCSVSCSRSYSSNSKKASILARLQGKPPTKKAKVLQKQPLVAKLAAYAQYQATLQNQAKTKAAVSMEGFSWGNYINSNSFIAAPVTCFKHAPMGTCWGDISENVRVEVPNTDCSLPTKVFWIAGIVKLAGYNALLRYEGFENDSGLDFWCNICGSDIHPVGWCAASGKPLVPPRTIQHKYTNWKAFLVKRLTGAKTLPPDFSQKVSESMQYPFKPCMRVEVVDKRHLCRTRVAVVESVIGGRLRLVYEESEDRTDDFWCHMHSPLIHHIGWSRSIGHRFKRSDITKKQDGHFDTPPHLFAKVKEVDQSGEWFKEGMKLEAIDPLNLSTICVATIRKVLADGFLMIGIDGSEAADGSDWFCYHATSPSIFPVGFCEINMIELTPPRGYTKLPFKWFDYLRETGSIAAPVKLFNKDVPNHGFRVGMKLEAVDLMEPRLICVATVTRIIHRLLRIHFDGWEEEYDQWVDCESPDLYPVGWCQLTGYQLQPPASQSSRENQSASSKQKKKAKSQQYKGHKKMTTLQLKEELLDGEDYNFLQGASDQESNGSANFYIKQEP
UniProt P09429: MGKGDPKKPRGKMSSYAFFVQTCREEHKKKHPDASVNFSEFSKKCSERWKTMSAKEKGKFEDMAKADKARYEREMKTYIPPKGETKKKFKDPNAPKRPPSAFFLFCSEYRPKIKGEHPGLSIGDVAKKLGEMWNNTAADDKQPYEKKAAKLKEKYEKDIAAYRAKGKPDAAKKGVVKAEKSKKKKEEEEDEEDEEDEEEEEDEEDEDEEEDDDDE

Molecular target: Erythropoietin-producing human hepatocellular B4 (EPHB4) (human (endogenous in SCC9)) (UniProt P54760)
Experiment: affinity purification with mass spectrometry; protein immunoprecipitated by anti-EPHB4 antibody from SCC9 cells, digested, proteomics screening by mass spectrometry; compared with the IgG control group

ACTN4 (from UniProt O43707 1-911)
binding: binds

ADCY2 (from UniProt Q08462 1-1091)
binding: binds

CALR (from UniProt P27797 18-417)
binding: binds

CANX (from UniProt P27824 21-592)
binding: binds

DBNL (from UniProt Q9UJU6 1-430)
binding: binds

EIF5A (from UniProt P63241 1-154)
binding: binds

KRT6A (from UniProt P02538 1-564)
binding: binds

MBTD1 (from UniProt Q05BQ5 1-628)
binding: binds

SLC3A2 (from UniProt P08195 1-529)
binding: binds

high-mobility group box 1 (HMGB1) (from UniProt P09429 1-215)
binding: binds

B1: ECH1 (protein, UniProt Q13011 34-328)
chain: TGSSAQEEASGVALGEAPDHSYESLRVTSAQKHVLHVQLNRPNKRNAMNKVFWREMVECFNKISRDADCRAVVISGAGKMFTAGIDLMDMASDILQPKGDDVARISWYLRDIITRYQETFNVIERCPKPVIAAVHGGCIGGGVDLVTACDIRYCAQDAFFQVKEVDVGLAADVGTLQRLPKVIGNQSLVNELAFTARKMMADEALGSGLVSRVFPDKEVMLDAALALAAEISSKSPVAVQSTKVNLLYSRDHSVAESLNYVASWNMSMLQTQDLVKSVQATTENKELKTVTFSKL
binding: binds

B2: NR1H4 (protein, UniProt Q96RI1 1-486)
chain: MVMQFQGLENPIQISPHCSCTPSGFFMEMMSMKPAKGVLTEQVAGPLGQNLEVEPYSQYSNVQFPQVQPQISSSSYYSNLGFYPQQPEEWYSPGIYELRRMPAETLYQGETEVAEMPVTKKPRMGASAGRIKGDELCVVCGDRASGYHYNALTCEGCKGFFRRSITKNAVYKCKNGGNCVMDMYMRRKCQECRLRKCKEMGMLAECMYTGLLTEIQCKSKRLRKNVKQHADQTVNEDSEGRDLRQVTSTTKSCREKTELTPDQQTLLHFIMDSYNKQRMPQEITNKILKEEFSAEENFLILTEMATNHVQVLVEFTKKLPGFQTLDHEDQIALLKGSAVEAMFLRSAEIFNKKLPSGHSDLLEERIRNSGISDEYITPMFSFYKSIGELKMTQEEYALLTAIVILSPDRQYIKDREAVEKLQEPLLDVLQKLCKIHQPENPQHFACLLGRLTELRTFNHHHAEMLMSWRVNDHKFTPLLCEIWDVQ
binding: binds

B3: TRAF4 (protein, UniProt Q9BUZ4 1-470)
chain: MPGFDYKFLEKPKRRLLCPLCGKPMREPVQVSTCGHRFCDTCLQEFLSEGVFKCPEDQLPLDYAKIYPDPELEVQVLGLPIRCIHSEEGCRWSGPLRHLQGHLNTCSFNVIPCPNRCPMKLSRRDLPAHLQHDCPKRRLKCEFCGCDFSGEAYESHEGMCPQESVYCENKCGARMMRRLLAQHATSECPKRTQPCTYCTKEFVFDTIQSHQYQCPRLPVACPNQCGVGTVAREDLPGHLKDSCNTALVLCPFKDSGCKHRCPKLAMARHVEESVKPHLAMMCALVSRQRQELQELRRELEELSVGSDGVLIWKIGSYGRRLQEAKAKPNLECFSPAFYTHKYGYKLQVSAFLNGNGSGEGTHLSLYIRVLPGAFDNLLEWPFARRVTFSLLDQSDPGLAKPQHVTETFHPDPNWKNFQKPGTWRGSLDESSLGFGYPKFISHQDIRKRNYVRDDAVFIRAAVELPRKILS
binding: binds

B4: CRYAB (protein, UniProt P02511 1-175)
chain: MDIAIHHPWIRRPFFPFHSPSRLFDQFFGEHLLESDLFPTSTSLSPFYLRPPSFLRAPSWFDTGLSEMRLEKDRFSVNLDVKHFSPEELKVKVLGDVIEVHGKHEERQDEHGFISREFHRKYRIPADVDPLTITSSLSSDGVLTVNGPRKQVSGPERTIPITREEKPAVTAAPKK
binding: binds
